Data source: PubChem BioAssay AID1259308 (NCATS, 2017)
Aim: 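Candidate targets for better recombinant protein yield in mammalian cells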 (primary screen). System: human HEK293 embryonic kidney cells stably expressing firefly luciferase (HEK-CMV-Luc2-Hygro). Knock-down reagent: single siRNA against human genes, 0.8 pmol siRNA per well. Timing: 72 h. Measured: 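Luciferase light (ONE-Glo) measured on one replicate plate set and viability (CellTiter-Glo) on the other, scaled to a negative control siRNA, with robust z-scores and luciferase per cell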. Scale: total luciferase, z-score and total luciferase, % of control: higher = more reporter protein produced; luciferase per cell, z-score: higher = more reporter output per viable cell; viable cells, % of control: higher = more viable cells. Active means: 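Active when the median/MAD z-score for overall luciferase is greater than 3; a gene was taken forward for validation with new siRNAs if at least two of its three siRNAs passed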. Meaning of the calls: active = raised luciferase; inactive = no rise.
The whole screen tested about 59,000 reagents; this is a part drawn at random. About 1,510 of all reagents (2.6%) count as active. 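Calls use total luciferase alone and ignore viability, so some active siRNAs may act by altering cell number.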 Reagents against one gene are numbered here. No sequences are given here.

no.	gene knocked down	reagent	total luciferase, z-score	total luciferase, % of control	luciferase per cell, z-score	viable cells, % of control	outcome
1	SYNJ1	1	-0.396	74	-0.575	96.2	inactive
2	SYNJ1	2	-0.188	78.1	-0.852	109	inactive
3	SYNJ1	3	-0.844	65.1	-1.13	97.9	inactive
4	ECI1	1	-0.747	67	-1.37	107	inactive
5	ECI1	2	-0.891	64.2	-0.889	90.6	inactive
6	ECI1	3	-0.14	79.1	-0.299	95.6	inactive
7	RPS3	1	-2.5	32.2	-1.69	56.2	inactive
8	RPS3	2	-2.78	26.6	-1.97	49.9	inactive
9	RPS3	3	-3	22.2	-3.58	63.6	inactive
10	CRACR2B	1	-0.549	71	-0.545	91.5	inactive
11	CRACR2B	2	7.42	230	4.61	76.2	active
12	CRACR2B	3	-1.5	52.1	-1.21	80	inactive
13	ALLC	1	0.528	92.4	0.327	94.7	inactive
14	ALLC	2	-0.274	76.4	-0.58	99.5	inactive
15	ALLC	3	-0.0611	80.7	-0.653	107	inactive
16	FAM81B	1	0.739	96.6	0.161	103	inactive
17	FAM81B	2	0.682	95.5	0.0778	105	inactive
18	FAM81B	3	-0.839	65.2	-0.109	75	inactive
19	LINC00381	1	-0.192	78.1	-0.353	95.7	inactive
20	LINC00381	2	-1.64	49.4	-2.11	96.1	inactive
21	LINC00381	3	-1.57	50.6	0.0197	56.2	inactive
22	TGFBR3L	1	3.65	155	2.27	94.9	active
23	TGFBR3L	2	0.702	95.8	0.632	90.7	inactive
24	TGFBR3L	3	-0.303	75.9	-0.329	92.4	inactive
25	CHD5	1	2.29	127	1.62	93	inactive
26	CHD5	2	-0.981	62.4	-0.706	83.9	inactive
27	CHD5	3	0.361	89.1	0.823	80.1	inactive
28	CCDC159	1	-0.74	67.2	-1.57	113	inactive
29	CCDC159	2	-0.533	71.3	-0.883	100	inactive
30	CCDC159	3	1.21	106	0.59	101	inactive
31	SEC14L6	1	1.88	119	2.87	62.6	inactive
32	SEC14L6	2	-0.0767	80.4	-0.106	92.3	inactive
33	SEC14L6	3	1.16	105	1.09	88.1	inactive
34	ZNF446	1	-0.871	64.6	0.4	64.9	inactive
35	ZNF446	2	0.205	86	0.581	82.4	inactive
36	ZNF446	3	-1.19	58.2	-1.43	94.9	inactive
37	GRK1	1	-0.757	66.8	-0.397	82.9	inactive
38	GRK1	2	-0.0943	80	-0.711	108	inactive
39	GRK1	3	1.45	111	1.27	88.6	inactive

Records above called active (2):
gene knocked down	reagent	total luciferase, z-score	total luciferase, % of control	luciferase per cell, z-score	viable cells, % of control	outcome
CRACR2B	2	7.42	230	4.61	76.2	active
TGFBR3L	1	3.65	155	2.27	94.9	active
